Experimental data reported in publication PMC9280186.
No constants are given. Whether binding was seen depends on the method and setting. Some binding calls cover weakened binding; strength is not graded here.

Sequences of proteins named here, by UniProt entry; tags and fusion partners are left off. Residues count along the entry.
UniProt O00206, residues 24-631: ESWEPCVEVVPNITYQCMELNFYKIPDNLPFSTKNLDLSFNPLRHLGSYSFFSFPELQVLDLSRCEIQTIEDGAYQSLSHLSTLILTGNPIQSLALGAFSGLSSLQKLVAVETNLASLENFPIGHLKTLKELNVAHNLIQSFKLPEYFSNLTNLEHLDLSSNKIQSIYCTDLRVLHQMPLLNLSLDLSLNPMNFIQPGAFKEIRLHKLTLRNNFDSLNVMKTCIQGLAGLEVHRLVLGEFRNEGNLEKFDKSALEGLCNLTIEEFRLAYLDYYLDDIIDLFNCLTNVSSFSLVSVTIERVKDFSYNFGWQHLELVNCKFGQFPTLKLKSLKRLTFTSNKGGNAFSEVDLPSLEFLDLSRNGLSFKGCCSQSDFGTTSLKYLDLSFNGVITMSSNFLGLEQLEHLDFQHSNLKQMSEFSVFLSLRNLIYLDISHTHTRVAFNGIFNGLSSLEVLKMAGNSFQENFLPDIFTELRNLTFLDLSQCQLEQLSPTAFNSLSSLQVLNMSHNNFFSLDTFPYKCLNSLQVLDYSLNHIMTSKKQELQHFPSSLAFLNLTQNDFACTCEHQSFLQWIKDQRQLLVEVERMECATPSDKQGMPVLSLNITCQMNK

Target: TLR 4 (Peprotech) (UniProt O00206)
Assay: pull-down; TLR4 conjugated to 80 nm carboxyl silica nanospheres, blocked with Tris-HCl pH 8 and casein; incubated with Alt a 1 (0.1 ug/uL) for 2 h at room temperature; washed pellets analysed by SDS-PAGE and western blot with anti-Alt a 1 antibody; both purified

B1: recombinant Alt a 1 (protein, UniProt P79085 26-157)
chain: DTASCPVTTEGDYVWKISEFYGRKPEGTYYNSLGFNIKATNGGTLDFTCSAQADKLEDHKWYSCGENSFMDFSFDSDRSGLLLKQKVSDDITYVATATLPNYCRAGGNGPKDFVCQGVADAYITLVTLPKSS
binding: binds
